# Library screen at single concentrations

Chains of the proteins cited; added tags and fusions are not shown.
UniProt P9WFT3, whole entry: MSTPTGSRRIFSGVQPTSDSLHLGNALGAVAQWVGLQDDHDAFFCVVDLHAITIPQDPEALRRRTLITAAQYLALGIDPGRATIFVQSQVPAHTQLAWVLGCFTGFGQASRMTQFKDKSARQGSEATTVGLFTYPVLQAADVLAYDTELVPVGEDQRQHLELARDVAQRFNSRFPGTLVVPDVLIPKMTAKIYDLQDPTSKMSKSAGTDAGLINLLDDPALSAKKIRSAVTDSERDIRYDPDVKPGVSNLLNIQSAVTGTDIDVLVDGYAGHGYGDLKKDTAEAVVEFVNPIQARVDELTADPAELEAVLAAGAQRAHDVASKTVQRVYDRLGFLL

The values are deposited in ChEMBL (CHEMBL3988442, “University of Dundee, Small-Polar-MMV Screening Library” (2021)).

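Enzyme assay of tryptophanyl-tRNA synthetase; the read-out is not stated. Target: Tryptophan-tRNA ligase, Mycobacterium tuberculosis (UniProt P9WFT3). Tested at 10 µM. Direction is not recorded; retested compounds ran higher, which suggests that high means inhibition. About 65,000 compounds were tested under these conditions; 0.098% (about 64) showed 50% or more at least once.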

Results are given as percent effect.
The record does not define 0% and 100%; most values in the screen are far below 50% and negative numbers occur (in some assays of this library far below -100).
The compounds are a random part of those screened.

For CC(C)c1nccn1C1CCCN(C(=O)c2cc(C(N)=O)cs2)C1 (centres unmarked) the result was 0.2839%. O=C(NCCCn1cccn1)C1CCC(=O)N(Cc2ccccc2F)C1 (centres unmarked) read 0.7971%. With Cc1cc(C)c(CNc2ncnc3c2cnn3C)c(=O)[nH]1 the screen gave -5.202%. CCc1ncc(C(=O)c2ccc(OC)cc2)n1C read -0.89%.

For COc1ccc(C2SCC(=O)Nc3n[nH]cc32)c(OC)c1OC (centres unmarked) the result was 1.356%. For CCc1nc(C)sc1CN1CC[C@](O)(CC)[C@H](O)C1 the result was 0.8639%. Result for CCc1nnc(C(C)N2CCCN(C(=O)OCC(C)C)CC2)o1 (centres unmarked) was 10.22%. COc1cc(C(=O)N2CCCC2c2noc(C(C)C)n2)on1 (centres unmarked) read -3.677%.

CCN1CCC(CNC(=O)Nc2cc(C)on2)C1 (centres unmarked) gave -3.039%. C[C@@H]1CN(C(=O)CCN2CCOCC2)CC[C@]1(C)O gave -1.175%. With Fc1ccc(CC2CCN(Cc3cscn3)CC2)cc1 the screen gave 2.082%. CNC(=O)c1[nH]nc2c1CN(c1cc(C3CCCNC3)nc(C)n1)CC2 (centres unmarked) gave 6.028%.

CC(C)[C@@H]1CN(Cc2ccccc2C#N)C[C@H]1C(=O)O gave 2.74%. Cc1noc(C)c1CN1CCc2cnn(C)c2C1COCC1CC1 (centres unmarked) gave 0.3526%. Cc1cnn(CC2CCCN2Cc2nc(C)c3ccccc3n2)c1 (centres unmarked) read 0.1298%. With NC(=O)c1cc2c(nc1CC1CCCCO1)CCC2 (centres unmarked) the screen gave 1.891%.

CNc1cc(C(=O)NCCC2=CSC3=NCCCN23)ccn1 read -0.4699%. For CCN1CCC2(CN(C(=O)N(C)C)CC23CCN(CC2CC2)CC3)C1=O (centres unmarked) the result was 2.021%. CC(=O)Nc1ccsc1C(=O)Nc1cnc2n1CCCC2 read -4.578%. With Cc1c2ncn(CC(=O)NC(C)C)c(=O)c2nn1C the screen gave 5.451%.

For Cc1cc(NCCO)nc(N2CCC(Cc3ccccc3)CC2)c1C#N the result was -0.8675%. COCCOC[C@]1(CNC(=O)c2ccc(OC)cc2)C[C@@H](O)[C@@H](O)C1 read -1.28%. Nc1cccnc1N1CCC(C(F)(F)F)CC1 gave 9.292%. Result for O=C(NCC1(O)CCSCC1)c1ccoc1 was -2.999%.

CN1CCC(CNC(=O)c2cccc(CN3CCCCCC3)c2)C1 (centres unmarked) read 2.022%. Cc1cc(C)n(CC(=O)Nc2cc(-c3ccncc3)[nH]n2)n1 gave -3.667%. For CCOCc1nc(N2CCOCC2)sc1C(=O)NCCCc1ccco1 the result was 3.732%. With COCCn1cc(C(=O)N2CCCC2c2ccncc2)c2ccccc21 (centres unmarked) the screen gave -1.944%.

Repeated from the top, 2 entries:

Compound,Percent Effect
CC(C)c1nccn1C1CCCN(C(=O)c2cc(C(N)=O)cs2)C1 (centres unmarked),0.2839
O=C(NCCCn1cccn1)C1CCC(=O)N(Cc2ccccc2F)C1 (centres unmarked),0.7971